From the supplement of paper PMC10849652
The list shows a part of the results.

Amino acid sequences for entries named in this document (tags omitted). A change or cut given only in a name is not applied to a line headed by its entry.
UniProt Q9UN86: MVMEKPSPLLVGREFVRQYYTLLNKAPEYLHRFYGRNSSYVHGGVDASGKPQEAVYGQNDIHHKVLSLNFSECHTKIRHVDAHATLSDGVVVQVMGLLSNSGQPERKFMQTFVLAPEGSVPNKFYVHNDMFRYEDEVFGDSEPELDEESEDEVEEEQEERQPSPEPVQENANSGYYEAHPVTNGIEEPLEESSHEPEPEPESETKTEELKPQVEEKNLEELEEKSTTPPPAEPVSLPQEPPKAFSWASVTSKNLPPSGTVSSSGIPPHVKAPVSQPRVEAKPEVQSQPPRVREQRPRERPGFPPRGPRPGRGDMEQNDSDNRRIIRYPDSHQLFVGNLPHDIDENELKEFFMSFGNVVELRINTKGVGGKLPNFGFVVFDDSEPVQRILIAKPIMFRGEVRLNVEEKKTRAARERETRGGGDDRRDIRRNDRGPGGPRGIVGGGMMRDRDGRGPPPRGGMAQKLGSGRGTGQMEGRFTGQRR
UniProt Q8N2G8: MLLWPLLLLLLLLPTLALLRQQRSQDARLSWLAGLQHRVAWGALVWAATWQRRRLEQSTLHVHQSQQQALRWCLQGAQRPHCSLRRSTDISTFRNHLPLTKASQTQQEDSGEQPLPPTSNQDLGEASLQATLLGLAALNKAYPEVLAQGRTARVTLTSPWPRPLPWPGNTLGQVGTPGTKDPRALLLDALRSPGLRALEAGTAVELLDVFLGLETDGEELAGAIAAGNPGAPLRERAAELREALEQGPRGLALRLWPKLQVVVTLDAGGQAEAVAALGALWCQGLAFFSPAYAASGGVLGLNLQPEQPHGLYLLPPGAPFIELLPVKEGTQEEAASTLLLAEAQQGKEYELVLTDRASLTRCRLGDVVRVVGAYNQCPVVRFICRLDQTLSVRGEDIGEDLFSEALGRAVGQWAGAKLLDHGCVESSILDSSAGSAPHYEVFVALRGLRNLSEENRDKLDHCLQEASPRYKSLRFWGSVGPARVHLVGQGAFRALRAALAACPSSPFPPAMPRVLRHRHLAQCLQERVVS
UniProt Q8IXK2: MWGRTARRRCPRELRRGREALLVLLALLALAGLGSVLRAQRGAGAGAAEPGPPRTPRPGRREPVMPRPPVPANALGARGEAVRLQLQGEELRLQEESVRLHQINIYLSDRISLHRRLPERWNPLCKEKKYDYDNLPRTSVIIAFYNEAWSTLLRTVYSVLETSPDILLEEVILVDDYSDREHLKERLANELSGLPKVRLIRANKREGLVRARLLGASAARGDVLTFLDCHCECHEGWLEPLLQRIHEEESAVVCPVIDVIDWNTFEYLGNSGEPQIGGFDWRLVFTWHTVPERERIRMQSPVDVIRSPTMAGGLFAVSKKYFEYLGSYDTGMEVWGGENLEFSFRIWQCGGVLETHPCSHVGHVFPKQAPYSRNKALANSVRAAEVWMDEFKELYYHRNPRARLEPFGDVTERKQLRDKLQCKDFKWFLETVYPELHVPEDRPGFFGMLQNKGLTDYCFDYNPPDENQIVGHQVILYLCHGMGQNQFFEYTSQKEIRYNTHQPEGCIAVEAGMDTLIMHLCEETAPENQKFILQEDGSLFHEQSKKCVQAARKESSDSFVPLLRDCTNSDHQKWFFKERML
UniProt Q7L5D6: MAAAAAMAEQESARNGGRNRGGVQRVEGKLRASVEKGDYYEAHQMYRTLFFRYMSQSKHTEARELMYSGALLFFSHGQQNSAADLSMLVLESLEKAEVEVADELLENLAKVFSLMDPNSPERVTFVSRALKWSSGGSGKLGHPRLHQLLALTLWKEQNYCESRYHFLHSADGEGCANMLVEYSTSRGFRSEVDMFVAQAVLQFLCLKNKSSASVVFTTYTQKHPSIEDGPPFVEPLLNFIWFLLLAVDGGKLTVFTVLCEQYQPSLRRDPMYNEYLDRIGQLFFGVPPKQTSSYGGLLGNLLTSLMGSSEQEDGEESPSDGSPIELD
UniProt Q86SF2: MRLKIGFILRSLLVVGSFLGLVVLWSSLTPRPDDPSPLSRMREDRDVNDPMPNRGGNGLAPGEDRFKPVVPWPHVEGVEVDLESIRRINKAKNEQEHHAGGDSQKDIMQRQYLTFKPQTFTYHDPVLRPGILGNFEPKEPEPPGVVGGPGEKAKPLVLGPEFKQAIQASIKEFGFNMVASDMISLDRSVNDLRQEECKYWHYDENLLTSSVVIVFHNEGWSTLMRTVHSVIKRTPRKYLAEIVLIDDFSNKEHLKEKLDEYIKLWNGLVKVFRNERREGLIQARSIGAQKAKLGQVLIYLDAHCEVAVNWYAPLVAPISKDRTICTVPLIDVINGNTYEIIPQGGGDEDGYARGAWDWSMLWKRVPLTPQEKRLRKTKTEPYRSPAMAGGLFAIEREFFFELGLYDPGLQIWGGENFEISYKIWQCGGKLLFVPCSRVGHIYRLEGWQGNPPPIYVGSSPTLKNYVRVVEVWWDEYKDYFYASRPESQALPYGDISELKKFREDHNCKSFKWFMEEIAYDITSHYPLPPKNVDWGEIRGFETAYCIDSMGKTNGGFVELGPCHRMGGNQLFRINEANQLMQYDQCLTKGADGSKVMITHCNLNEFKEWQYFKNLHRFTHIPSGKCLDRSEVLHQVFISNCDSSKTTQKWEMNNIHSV
UniProt P30047: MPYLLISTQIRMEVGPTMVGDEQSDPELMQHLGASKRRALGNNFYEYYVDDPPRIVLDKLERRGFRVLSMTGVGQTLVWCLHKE
UniProt P48507: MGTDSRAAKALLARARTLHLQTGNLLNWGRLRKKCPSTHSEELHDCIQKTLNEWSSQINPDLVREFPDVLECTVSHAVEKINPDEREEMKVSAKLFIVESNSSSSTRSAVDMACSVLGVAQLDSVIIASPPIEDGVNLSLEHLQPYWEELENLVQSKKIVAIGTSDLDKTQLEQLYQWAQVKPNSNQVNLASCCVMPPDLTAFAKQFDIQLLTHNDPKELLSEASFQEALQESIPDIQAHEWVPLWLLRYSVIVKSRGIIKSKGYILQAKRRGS
UniProt Q8TEQ6: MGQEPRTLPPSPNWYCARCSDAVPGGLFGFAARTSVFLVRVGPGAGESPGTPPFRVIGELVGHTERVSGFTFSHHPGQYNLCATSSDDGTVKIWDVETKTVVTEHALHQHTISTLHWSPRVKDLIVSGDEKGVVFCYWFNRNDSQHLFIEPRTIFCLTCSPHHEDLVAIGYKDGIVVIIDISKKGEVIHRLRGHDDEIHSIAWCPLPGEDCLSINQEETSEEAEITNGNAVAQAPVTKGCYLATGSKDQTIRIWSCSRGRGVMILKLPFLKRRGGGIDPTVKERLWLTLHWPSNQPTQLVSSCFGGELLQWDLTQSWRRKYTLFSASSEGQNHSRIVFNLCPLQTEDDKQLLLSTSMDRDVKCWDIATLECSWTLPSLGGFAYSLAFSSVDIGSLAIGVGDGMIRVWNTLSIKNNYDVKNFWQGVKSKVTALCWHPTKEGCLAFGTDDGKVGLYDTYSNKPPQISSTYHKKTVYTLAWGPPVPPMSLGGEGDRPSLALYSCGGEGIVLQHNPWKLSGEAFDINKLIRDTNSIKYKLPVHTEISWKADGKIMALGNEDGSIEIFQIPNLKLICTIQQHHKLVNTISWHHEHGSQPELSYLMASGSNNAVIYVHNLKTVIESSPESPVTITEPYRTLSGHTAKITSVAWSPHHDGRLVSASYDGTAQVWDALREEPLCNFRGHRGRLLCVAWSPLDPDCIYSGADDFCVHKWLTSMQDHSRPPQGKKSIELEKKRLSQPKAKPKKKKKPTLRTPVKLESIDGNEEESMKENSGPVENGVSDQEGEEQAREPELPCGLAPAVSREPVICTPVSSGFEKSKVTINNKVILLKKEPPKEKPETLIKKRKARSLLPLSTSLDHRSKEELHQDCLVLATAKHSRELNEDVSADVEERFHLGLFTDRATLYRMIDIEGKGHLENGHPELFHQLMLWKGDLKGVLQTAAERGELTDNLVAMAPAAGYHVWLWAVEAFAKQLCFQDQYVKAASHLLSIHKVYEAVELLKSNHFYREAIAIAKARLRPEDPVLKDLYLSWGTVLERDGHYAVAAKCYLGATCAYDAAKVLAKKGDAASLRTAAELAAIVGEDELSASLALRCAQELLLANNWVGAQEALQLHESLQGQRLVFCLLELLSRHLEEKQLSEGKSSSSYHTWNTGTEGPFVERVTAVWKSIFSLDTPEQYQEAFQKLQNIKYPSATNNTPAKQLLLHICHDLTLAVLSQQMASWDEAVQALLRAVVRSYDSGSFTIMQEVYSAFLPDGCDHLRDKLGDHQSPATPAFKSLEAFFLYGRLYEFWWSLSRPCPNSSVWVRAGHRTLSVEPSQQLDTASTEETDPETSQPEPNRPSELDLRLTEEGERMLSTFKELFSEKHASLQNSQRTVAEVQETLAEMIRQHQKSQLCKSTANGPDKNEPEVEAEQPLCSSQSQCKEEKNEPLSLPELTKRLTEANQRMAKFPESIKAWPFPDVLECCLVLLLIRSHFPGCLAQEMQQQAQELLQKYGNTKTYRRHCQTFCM
UniProt P0CL80: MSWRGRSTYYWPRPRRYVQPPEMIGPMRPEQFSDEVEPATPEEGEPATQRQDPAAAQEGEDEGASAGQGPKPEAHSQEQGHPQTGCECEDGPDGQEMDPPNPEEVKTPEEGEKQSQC
UniProt Q9BTY2: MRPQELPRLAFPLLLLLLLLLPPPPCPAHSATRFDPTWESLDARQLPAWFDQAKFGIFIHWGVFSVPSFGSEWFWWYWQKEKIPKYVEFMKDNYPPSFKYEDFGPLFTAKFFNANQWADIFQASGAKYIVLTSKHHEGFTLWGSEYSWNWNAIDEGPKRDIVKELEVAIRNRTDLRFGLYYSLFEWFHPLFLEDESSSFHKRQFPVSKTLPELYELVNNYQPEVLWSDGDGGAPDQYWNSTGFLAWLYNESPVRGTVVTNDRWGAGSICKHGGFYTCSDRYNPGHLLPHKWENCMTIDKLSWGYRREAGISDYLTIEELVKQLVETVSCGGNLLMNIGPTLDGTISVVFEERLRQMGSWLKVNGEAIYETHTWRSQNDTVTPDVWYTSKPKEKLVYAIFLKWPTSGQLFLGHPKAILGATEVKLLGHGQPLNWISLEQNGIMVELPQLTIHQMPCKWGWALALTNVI
UniProt Q96I24: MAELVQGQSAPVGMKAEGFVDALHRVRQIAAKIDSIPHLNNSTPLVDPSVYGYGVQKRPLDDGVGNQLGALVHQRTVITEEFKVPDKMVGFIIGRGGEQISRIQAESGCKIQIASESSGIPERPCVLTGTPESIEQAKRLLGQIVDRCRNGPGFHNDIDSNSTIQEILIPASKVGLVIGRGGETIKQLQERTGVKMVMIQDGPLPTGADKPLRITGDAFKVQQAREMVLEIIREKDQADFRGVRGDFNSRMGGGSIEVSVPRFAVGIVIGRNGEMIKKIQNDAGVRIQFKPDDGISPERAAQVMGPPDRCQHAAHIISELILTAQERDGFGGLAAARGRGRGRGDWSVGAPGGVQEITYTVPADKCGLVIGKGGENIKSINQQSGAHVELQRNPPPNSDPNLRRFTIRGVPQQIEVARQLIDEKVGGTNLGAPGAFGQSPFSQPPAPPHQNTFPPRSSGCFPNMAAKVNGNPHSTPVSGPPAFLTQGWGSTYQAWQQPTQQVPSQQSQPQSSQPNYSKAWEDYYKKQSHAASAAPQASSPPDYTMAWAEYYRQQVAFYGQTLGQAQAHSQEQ
UniProt P23434: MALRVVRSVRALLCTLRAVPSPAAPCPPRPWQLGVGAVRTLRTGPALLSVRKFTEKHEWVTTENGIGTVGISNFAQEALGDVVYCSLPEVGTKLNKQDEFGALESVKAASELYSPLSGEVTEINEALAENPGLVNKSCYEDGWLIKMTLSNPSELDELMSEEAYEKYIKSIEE
UniProt P09958, whole entry, looked up: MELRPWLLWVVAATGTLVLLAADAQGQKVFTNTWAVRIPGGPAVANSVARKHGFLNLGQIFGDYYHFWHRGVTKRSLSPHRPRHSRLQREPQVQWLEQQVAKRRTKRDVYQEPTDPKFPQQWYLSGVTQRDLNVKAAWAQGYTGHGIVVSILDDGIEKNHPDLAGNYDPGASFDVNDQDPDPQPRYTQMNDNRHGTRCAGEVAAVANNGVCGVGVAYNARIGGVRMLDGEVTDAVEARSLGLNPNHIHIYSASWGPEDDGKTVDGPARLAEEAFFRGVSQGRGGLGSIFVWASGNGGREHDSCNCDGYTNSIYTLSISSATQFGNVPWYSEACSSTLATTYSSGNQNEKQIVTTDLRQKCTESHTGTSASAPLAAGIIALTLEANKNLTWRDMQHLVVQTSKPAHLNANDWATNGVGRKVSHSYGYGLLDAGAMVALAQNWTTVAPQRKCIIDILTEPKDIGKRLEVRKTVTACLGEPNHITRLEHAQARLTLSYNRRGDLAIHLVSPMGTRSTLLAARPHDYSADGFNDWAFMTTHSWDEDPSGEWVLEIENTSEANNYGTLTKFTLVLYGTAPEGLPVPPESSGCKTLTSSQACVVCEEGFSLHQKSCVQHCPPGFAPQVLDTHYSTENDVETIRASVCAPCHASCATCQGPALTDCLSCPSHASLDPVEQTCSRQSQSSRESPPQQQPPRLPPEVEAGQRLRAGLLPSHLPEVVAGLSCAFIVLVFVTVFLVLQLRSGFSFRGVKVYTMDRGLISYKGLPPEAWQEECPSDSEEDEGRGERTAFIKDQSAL

Compound: CCCS(=O)(=O)Nc1ccc(F)c(C(=O)c2c[nH]c3ncc(Cl)cc23)c1F
Test: log2 fold change, soluble protein after heating vs DMSO (PISA); higher = thermal stabilisation; K562 cells, 10 uM, 30 min; active = over 0.2 and 3.5 SD of the protein, either way, in both replicates (recomputed)
Outline: (§1)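 K562 cells at 2×10^6 cells/mL were exposed to 10 μM compound for 30 min, then aliquots were heated for 3 min across 48°C-58°C, pooled, and extracted in PBS containing 0.5% NP-40 at 4°C. The supernatant after 21,000xg for 90 min was taken as soluble protein and measured by TMTpro 16plex LC-MS/MS with channel sums equalised. Thermal stability is reported relative to control samples, with values from duplicates. Fold changes are given on a log2 scale.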

log2 fold change, inactive:
G3BP2 (UniProt Q9UN86) 0.008, GHDC (UniProt Q8N2G8) -0.044, G3BP1 (UniProt Q13283) 0.021, FUS (UniProt P35637) -0.101, GDAP1 (UniProt Q8TB36) -0.037, GALT (UniProt P07902) 0.036, GALNT5 (UniProt Q7Z7M9) -0.024, GALNT12 (UniProt Q8IXK2) 0.009, GCDH (UniProt Q92947) 0.002, GALK2 (UniProt Q01415) 0.013, GGCT (UniProt O75223) 0.013, GET4 (UniProt Q7L5D6) 0.039, GALNT7 (UniProt Q86SF2) 0.025, GCHFR (UniProt P30047) -0.047, GFM1 (UniProt Q96RP9) 0.062, GGA1 isoform 6 (UniProt Q9UJY5) 0.003, FUBP1 isoform 2 (UniProt Q96AE4) -0.043, GADD45GIP1 (UniProt Q8TAE8) -0.062, GCLM (UniProt P48507) 0.099, GART (UniProt C9JZG2) 0.006, GEMIN5 (UniProt Q8TEQ6) 0.093, GCAT isoform 2 (UniProt O75600) 0.017, GAGE12F (UniProt P0CL80) -0.018, GALNS (UniProt P34059) 0.092, GGPS1 (UniProt O95749) -0.02, FUCA2 (UniProt Q9BTY2) -0.053, GFPT1 (UniProt Q06210) 0.037, FUBP3 (UniProt Q96I24) 0.018, GCSH (UniProt P23434) -0.021, FTL (UniProt P02792) -0.024, FYB1 isoform 3 (UniProt O15117) 0.169, FURIN (UniProt P09958) -0.085, GGNBP2 (UniProt Q9H3C7) -0.078

Compound: CCCc1cc(C)[nH]c(=O)c1CNC(=O)c1cc(-c2ccnc(N3CCN(C)CC3)c2)cc2c1cnn2C(C)C
Test: as above
Outline: as §1

log2 fold change, inactive:
G3BP2 (UniProt Q9UN86) 0.114, GHDC (UniProt Q8N2G8) -0.011, G3BP1 (UniProt Q13283) 0.03, FUS (UniProt P35637) 0.163, GDAP1 (UniProt Q8TB36) 0.017, GALT (UniProt P07902) -0.081, GALNT5 (UniProt Q7Z7M9) 0.035, GALNT12 (UniProt Q8IXK2) -0.07, GCDH (UniProt Q92947) 0.009, GALK2 (UniProt Q01415) -0.049, GGCT (UniProt O75223) -0.013, GET4 (UniProt Q7L5D6) -0.009, GALNT7 (UniProt Q86SF2) -0.025, GCHFR (UniProt P30047) -0.049, GFM1 (UniProt Q96RP9) 0.027, GGA1 isoform 6 (UniProt Q9UJY5) 0.029, FUBP1 isoform 2 (UniProt Q96AE4) -0.021, GADD45GIP1 (UniProt Q8TAE8) -0.05, GCLM (UniProt P48507) 0.002, GART (UniProt C9JZG2) -0.216, GEMIN5 (UniProt Q8TEQ6) 0.018, GCAT isoform 2 (UniProt O75600) 0.007, GAGE12F (UniProt P0CL80) -0.031, GALNS (UniProt P34059) 0.032, GGPS1 (UniProt O95749) -0.004, FUCA2 (UniProt Q9BTY2) -0.025, GFPT1 (UniProt Q06210) 0.024, FUBP3 (UniProt Q96I24) -0.059, GCSH (UniProt P23434) -0.139, FTL (UniProt P02792) -0.083, FYB1 isoform 3 (UniProt O15117) -0.03, FURIN (UniProt P09958) 0.011, GGNBP2 (UniProt Q9H3C7) -0.158

Compound: CCN(CC)Cc1ccc2cc(COC(=O)Nc3ccc(C(=O)NO)cc3)ccc2c1 [givinostat]
Test: as above
Outline: as §1

log2 fold change, inactive:
G3BP2 (UniProt Q9UN86) -0.021, GHDC (UniProt Q8N2G8) -0.025, G3BP1 (UniProt Q13283) -0.018, FUS (UniProt P35637) -0.088, GDAP1 (UniProt Q8TB36) -0.05, GALT (UniProt P07902) 0.008, GALNT5 (UniProt Q7Z7M9) 0.006, GALNT12 (UniProt Q8IXK2) -0.01, GCDH (UniProt Q92947) 0.004, GALK2 (UniProt Q01415) -0.046, GGCT (UniProt O75223) -0.036, GET4 (UniProt Q7L5D6) 0.061, GALNT7 (UniProt Q86SF2) -0.019, GCHFR (UniProt P30047) 0.128, GFM1 (UniProt Q96RP9) 0.044, GGA1 isoform 6 (UniProt Q9UJY5) 0.021, FUBP1 isoform 2 (UniProt Q96AE4) -0.02, GADD45GIP1 (UniProt Q8TAE8) 0.053, GCLM (UniProt P48507) 0.074, GART (UniProt C9JZG2) 0.008, GEMIN5 (UniProt Q8TEQ6) -0.1, GCAT isoform 2 (UniProt O75600) -0.044, GAGE12F (UniProt P0CL80) -0.076, GALNS (UniProt P34059) -0.031, GGPS1 (UniProt O95749) -0.115, FUCA2 (UniProt Q9BTY2) -0.028, GFPT1 (UniProt Q06210) -0.027, FUBP3 (UniProt Q96I24) -0.023, GCSH (UniProt P23434) 0, FTL (UniProt P02792) -0.268, FYB1 isoform 3 (UniProt O15117) 0.066, FURIN (UniProt P09958) -0.008, GGNBP2 (UniProt Q9H3C7) 0.024
